Measurements reported in patent publication US6881395.
These are yes or no findings as the source states them, for the method shown. Some results given as binding are weak or reduced against the parent protein; the word gives no strength.

Sequences of proteins named here, by UniProt entry; tags and fusion partners are left off. A change or cut given only in a name is not applied to a line headed by its entry. A line that says so, or that is headed by a name, gives the form on record, which may keep a tag or linker.
UniProt Q15389: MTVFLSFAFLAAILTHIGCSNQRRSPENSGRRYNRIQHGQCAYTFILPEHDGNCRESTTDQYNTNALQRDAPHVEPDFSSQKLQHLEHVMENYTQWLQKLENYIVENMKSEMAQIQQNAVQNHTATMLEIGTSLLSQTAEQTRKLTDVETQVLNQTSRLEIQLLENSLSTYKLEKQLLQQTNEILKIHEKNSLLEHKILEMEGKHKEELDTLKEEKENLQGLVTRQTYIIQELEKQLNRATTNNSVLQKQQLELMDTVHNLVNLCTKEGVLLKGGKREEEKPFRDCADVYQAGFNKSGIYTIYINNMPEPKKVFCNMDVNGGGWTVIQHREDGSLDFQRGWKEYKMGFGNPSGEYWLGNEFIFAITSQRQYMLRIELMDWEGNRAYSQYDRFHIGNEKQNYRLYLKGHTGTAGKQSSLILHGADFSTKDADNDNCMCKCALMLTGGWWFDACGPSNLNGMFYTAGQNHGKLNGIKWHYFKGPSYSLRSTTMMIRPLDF
UniProt O15123: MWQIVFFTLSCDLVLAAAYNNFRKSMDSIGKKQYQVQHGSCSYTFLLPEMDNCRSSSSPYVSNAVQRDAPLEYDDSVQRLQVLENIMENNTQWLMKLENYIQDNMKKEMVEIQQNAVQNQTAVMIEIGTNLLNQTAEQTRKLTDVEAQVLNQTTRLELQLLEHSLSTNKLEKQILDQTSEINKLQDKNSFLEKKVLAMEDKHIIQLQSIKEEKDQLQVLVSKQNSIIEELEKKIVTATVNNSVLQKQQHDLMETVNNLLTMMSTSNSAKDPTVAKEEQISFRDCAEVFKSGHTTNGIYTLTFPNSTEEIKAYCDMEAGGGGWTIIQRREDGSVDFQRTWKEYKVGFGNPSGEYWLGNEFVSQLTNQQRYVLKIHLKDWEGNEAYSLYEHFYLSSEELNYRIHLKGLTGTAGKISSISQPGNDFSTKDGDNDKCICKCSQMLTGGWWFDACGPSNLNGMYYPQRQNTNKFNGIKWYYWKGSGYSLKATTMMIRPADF
TIE-2 receptorbody (r TIE-2 ecto/h IgG1 Fc) (A0ABK0L6J5, form named): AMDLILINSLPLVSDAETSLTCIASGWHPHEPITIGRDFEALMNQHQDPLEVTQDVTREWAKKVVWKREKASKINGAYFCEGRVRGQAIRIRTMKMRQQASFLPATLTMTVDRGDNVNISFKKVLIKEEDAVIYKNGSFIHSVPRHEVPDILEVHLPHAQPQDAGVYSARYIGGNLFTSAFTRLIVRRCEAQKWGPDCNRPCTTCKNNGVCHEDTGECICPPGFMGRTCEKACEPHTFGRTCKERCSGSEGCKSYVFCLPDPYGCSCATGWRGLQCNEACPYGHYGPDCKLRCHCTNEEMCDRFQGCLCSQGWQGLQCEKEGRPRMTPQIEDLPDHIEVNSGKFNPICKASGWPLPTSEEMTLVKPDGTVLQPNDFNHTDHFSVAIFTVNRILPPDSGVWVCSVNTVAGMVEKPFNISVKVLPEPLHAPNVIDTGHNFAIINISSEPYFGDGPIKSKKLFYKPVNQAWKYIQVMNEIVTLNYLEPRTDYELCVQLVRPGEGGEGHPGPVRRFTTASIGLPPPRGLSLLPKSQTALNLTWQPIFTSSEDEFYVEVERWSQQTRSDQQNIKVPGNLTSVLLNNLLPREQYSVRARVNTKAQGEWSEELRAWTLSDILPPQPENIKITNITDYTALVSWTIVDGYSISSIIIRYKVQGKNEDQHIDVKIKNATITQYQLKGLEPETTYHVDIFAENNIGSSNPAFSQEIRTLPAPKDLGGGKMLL

Columns and labels:
[1] = molecular target: TIE-2 ligand 1 (TL1) (human) (UniProt Q15389); assay: quantitative cell-free binding assay (ELISA)
[2] = molecular target: TIE-2 ligand 1 (TL1) (human) (UniProt Q15389); assay: cell-free ELISA; ligand coated, receptorbody titrated, AP-tagged anti-human Fc detection
[3] = molecular target: TIE-2 ligand 2 (TL2) (human) (UniProt O15123); assay: as above

Measured: binding

TIE-2 receptorbody (r TIE-2 ecto/h IgG1 Fc) (from UniProt A0ABK0L6J5 19-740) (Fc fusion)
binds: [1] | [2] | [3]
